Data published in US20230340127A1, “METHODS AND COMPOSITIONS FOR CANCER TREATMENT BY INHIBITION OF FBXO44” (Sanford Burnham Prebys Medical Discovery Institute, priority 2022, published 2023).
Results are given in words; binding and its absence hold for the method and conditions named. In cells and extracts the contact can be indirect. A yes stands for co-enrichment or nearness to the bait. Other partners may have been found. Sequences can lack the tags named with a protein.

Amino acid sequences for entries named in this document (tags omitted). Residues count along the entry.
UniProt Q13620: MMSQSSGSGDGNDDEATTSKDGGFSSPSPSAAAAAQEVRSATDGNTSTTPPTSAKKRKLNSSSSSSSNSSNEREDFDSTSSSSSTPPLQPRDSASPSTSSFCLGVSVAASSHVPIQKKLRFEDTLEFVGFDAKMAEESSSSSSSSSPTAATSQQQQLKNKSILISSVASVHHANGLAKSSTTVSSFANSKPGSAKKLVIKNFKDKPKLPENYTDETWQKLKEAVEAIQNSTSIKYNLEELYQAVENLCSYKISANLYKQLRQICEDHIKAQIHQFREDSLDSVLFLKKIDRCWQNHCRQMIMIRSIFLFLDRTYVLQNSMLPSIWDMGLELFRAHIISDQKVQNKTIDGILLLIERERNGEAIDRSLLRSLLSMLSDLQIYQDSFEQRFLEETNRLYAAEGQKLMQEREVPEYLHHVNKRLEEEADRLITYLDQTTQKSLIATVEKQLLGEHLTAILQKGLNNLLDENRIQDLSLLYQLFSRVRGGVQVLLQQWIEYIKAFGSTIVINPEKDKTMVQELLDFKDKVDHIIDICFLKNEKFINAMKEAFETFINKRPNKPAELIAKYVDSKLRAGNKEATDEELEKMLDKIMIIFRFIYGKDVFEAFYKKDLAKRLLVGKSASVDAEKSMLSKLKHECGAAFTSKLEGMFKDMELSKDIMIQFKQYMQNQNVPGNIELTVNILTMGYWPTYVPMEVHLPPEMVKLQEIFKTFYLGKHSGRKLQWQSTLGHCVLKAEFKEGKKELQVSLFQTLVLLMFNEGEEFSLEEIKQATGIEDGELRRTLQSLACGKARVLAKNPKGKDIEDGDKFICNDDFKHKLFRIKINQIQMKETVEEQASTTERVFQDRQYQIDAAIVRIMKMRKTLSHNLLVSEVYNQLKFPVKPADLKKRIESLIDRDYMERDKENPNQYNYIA
UniProt Q09028, residues 2-425: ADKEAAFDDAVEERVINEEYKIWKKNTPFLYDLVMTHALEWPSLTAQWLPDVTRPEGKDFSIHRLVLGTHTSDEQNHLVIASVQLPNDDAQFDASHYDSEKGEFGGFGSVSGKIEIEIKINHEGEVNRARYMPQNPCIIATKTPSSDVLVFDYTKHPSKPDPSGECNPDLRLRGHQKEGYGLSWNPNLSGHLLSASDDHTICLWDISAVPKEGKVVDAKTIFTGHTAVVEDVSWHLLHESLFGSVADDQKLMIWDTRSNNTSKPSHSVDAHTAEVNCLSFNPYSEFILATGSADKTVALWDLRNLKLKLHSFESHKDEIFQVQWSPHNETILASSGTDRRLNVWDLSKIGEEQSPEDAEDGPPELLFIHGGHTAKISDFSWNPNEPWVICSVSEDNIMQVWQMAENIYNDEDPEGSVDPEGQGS
UniProt Q8WXI9: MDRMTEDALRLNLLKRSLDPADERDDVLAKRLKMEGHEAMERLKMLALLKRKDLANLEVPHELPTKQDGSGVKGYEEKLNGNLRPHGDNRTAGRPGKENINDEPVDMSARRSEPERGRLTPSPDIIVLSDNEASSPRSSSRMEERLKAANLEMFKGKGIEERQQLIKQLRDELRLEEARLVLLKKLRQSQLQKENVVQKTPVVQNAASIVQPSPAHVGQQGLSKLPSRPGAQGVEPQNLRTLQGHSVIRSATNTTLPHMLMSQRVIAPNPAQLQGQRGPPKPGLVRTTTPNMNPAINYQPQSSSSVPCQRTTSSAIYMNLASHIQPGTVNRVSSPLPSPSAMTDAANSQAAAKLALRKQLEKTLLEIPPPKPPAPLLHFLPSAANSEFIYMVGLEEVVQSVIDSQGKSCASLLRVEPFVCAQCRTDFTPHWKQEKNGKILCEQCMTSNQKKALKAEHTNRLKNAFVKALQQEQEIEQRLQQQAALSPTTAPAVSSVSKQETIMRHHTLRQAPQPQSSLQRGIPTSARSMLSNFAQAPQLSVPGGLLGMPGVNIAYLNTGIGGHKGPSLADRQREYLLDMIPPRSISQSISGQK
UniProt Q86YP4: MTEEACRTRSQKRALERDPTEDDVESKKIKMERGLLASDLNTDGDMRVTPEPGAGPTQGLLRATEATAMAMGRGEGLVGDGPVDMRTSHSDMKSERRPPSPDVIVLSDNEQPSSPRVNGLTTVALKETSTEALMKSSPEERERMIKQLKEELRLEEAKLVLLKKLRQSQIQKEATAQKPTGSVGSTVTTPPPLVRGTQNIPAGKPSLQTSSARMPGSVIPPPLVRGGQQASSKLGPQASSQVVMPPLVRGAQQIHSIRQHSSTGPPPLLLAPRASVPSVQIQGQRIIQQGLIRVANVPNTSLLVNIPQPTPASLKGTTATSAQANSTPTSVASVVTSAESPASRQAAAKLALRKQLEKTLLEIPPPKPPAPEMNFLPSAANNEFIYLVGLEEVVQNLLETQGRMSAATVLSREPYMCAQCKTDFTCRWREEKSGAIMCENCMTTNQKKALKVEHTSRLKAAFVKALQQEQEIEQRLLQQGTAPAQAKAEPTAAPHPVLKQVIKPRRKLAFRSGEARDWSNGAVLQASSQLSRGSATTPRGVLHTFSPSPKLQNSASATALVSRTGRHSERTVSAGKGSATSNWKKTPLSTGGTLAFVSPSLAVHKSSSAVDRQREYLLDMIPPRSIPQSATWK
UniProt Q16576, residues 2-425: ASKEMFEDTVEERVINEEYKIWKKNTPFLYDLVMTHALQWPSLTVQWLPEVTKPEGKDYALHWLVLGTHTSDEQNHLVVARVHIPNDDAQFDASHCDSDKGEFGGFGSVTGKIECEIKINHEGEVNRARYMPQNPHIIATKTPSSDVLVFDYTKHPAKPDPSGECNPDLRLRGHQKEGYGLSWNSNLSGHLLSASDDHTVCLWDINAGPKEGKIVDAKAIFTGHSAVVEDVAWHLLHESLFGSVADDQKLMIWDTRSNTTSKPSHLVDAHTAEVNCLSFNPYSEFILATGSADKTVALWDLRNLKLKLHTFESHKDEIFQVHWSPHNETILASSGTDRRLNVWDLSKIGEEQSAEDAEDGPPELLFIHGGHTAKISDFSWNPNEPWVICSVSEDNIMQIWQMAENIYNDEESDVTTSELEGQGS

Tests used:
Assay in all cases: anti-Flag affinity purification of Flag-FBXO44 complexes, mass spectrometry (FIG. 3A)
[1] = target: CUL4B (endogenous) (UniProt Q13620)
[2] = target: RBBP4 (endogenous) (UniProt Q09028)
[3] = target: GATAD2B (endogenous) (UniProt Q8WXI9)
[4] = target: GATAD2A (endogenous) (UniProt Q86YP4)
[5] = target: RBBP7 (endogenous) (UniProt Q16576)

Measured: binding

B1: Flag-FBXO44 (protein, human, UniProt Q9H4M3 1-255, looked up, not shown: small tags and cut ends)
chain: MAVGNINELPENILLELFTHVPARQLLLNCRLVCSLWRDLIDLVTLWKRKCLREGFITEDWDQPVADWKIFYFLRSLHRNLLHNPCAEEGFEFWSLDVNGGDEWKVEDLSRDQRKEFPNDQVKKYFVTSYYTCLKSQVVDLKAEGYWEELMDTTRPDIEVKDWFAARPDCGSKYQLCVQLLSSAHAPLGTFQPDPATIQQKSDAKWREVSHTFSNYPPGVRYIWFQHGGVDTHYWAGWYGPRVTNSSITIGPPLP
binds: all assays above
